These are yes or no findings as the source states them, for the method shown. Binding seen in cells or lysates may run through a third protein. Some results given as binding are weak or reduced against the parent protein; the word gives no strength. Where a sequence is shown, tags or fusion partners need not be part of it.

Our source for the binding values is PMC8168955.

The target in assay [1] is T1, human NLRP1-3xFLAG, wild type (human), Q9C000.
T1 chain: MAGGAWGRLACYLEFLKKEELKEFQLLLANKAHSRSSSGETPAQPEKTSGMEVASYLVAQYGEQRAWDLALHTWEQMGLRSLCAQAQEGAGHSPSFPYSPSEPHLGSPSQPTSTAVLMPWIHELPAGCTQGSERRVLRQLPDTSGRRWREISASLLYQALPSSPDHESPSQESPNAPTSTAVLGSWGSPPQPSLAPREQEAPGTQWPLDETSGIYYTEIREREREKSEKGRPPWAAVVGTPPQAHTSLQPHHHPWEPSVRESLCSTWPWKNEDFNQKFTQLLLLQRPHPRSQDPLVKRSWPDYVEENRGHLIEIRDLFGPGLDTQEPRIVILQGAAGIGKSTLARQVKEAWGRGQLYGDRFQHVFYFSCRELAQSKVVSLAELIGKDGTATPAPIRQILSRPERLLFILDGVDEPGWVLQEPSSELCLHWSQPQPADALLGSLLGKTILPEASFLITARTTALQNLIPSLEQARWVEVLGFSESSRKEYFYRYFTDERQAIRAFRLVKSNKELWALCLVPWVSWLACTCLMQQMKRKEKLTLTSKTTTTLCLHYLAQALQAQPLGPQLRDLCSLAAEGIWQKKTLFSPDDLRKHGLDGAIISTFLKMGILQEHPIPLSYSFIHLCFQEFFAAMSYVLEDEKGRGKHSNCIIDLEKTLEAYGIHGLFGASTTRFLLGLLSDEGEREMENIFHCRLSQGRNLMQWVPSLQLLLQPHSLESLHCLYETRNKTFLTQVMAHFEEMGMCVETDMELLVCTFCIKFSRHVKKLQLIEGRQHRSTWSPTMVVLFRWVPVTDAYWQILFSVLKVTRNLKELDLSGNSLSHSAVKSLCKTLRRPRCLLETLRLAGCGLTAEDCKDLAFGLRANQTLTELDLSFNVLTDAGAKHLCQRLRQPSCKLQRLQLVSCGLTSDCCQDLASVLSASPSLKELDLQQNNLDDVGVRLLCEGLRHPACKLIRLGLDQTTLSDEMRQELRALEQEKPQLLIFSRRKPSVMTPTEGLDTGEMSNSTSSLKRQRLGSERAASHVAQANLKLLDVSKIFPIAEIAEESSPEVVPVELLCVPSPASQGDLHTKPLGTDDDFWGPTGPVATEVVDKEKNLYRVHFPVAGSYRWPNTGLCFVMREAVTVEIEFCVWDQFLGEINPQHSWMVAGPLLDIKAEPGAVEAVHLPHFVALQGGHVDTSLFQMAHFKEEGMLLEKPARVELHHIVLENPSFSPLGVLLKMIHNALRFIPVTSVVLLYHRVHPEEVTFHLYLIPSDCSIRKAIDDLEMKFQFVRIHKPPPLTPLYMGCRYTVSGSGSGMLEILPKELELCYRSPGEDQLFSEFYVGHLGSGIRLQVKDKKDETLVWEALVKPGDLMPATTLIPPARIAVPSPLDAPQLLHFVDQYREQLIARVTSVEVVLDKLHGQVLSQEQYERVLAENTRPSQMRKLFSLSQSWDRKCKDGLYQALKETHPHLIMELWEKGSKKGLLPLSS
As to the kind of experiment: co-IP; anti-FLAG-M2-agarose precipitation of NLRP1-3xFLAG (WT or mutant) from HEK293T lysates in 1% NP40 lysis buffer with 150 mM NaCl, 4 hours or overnight at 4°C; DPP9 detected by immunoblot; in Fig 2B cells were treated with 2 μM Talabostat or dimethyl sulfoxide before harvest. The following applies: remark: other sources report otherwise.

Assay [2] addresses T2, human NLRP1-3xFLAG P1214R (human), Q9C000.
T2 chain: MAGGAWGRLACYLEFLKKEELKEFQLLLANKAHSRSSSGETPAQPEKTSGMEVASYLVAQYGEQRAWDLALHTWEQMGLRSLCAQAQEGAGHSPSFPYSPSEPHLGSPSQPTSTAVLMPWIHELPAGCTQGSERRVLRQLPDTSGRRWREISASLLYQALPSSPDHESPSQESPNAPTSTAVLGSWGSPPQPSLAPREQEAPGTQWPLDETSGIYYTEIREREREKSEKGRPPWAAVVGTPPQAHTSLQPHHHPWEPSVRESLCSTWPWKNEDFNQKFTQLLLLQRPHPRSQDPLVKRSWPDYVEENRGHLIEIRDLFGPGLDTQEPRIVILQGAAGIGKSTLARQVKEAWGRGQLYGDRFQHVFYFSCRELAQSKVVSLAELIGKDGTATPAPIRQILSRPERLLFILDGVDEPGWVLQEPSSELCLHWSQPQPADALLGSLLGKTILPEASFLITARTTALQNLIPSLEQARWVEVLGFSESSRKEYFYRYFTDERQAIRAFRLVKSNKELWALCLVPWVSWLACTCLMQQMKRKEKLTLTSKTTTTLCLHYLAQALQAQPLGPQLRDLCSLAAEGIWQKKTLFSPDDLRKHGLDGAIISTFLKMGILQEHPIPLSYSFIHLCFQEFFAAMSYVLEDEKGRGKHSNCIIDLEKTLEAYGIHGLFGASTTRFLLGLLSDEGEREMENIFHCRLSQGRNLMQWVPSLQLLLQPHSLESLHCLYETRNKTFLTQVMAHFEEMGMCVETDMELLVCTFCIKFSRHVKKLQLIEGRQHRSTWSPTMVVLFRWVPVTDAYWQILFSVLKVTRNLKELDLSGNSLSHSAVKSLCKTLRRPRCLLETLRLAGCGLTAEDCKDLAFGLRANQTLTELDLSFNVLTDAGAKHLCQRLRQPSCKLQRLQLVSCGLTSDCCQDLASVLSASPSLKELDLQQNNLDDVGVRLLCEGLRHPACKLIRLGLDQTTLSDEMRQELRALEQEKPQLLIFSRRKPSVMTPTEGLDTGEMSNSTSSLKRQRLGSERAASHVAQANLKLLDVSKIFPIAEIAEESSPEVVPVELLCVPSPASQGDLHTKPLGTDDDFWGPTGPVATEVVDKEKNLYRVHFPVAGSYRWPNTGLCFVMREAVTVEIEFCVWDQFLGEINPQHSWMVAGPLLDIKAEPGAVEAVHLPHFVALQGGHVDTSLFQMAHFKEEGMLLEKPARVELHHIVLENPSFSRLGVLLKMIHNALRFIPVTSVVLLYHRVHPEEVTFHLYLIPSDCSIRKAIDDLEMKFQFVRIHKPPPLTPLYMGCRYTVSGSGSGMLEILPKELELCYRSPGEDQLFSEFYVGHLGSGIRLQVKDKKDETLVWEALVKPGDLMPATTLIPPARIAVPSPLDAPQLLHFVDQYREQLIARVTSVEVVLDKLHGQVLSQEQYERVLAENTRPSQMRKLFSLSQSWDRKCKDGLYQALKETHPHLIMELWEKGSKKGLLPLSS
The assay is described as above. The following applies: remark: other sources report otherwise.

B1: dipeptidyl peptidase 9, Q86TI2 1-863 (enzyme)
chain: MATTGTPTADRGDAAATDDPAARFQVQKHSWDGLRSIIHGSRKYSGLIVNKAPHDFQFVQKTDESGPHSHRLYYLGMPYGSRENSLLYSEIPKKVRKEALLLLSWKQMLDHFQATPHHGVYSREEELLRERKRLGVFGITSYDFHSESGLFLFQASNSLFHCRDGGKNGFMVSPMKPLEIKTQCSGPRMDPKICPADPAFFSFINNSDLWVANIETGEERRLTFCHQGLSNVLDDPKSAGVATFVIQEEFDRFTGYWWCPTASWEGSEGLKTLRILYEEVDESEVEVIHVPSPALEERKTDSYRYPRTGSKNPKIALKLAEFQTDSQGKIVSTQEKELVQPFSSLFPKVEYIARAGWTRDGKYAWAMFLDRPQQWLQLVLLPPALFIPSTENEEQRLASARAVPRNVQPYVVYEEVTNVWINVHDIFYPFPQSEGEDELCFLRANECKTGFCHLYKVTAVLKSQGYDWSEPFSPGEDEFKCPIKEEIALTSGEWEVLARHGSKIWVNEETKLVYFQGTKDTPLEHHLYVVSYEAAGEIVRLTTPGFSHSCSMSQNFDMFVSHYSSVSTPPCVHVYKLSGPDDDPLHKQPRFWASMMEAASCPPDYVPPEIFHFHTRSDVRLYGMIYKPHALQPGKKHPTVLFVYGGPQVQLVNNSFKGIKYLRLNTLASLGYAVVVIDGRGSCQRGLRFEGALKNQMGQVEIEDQVEGLQFVAEKYGFIDLSRVAIHGWSYGGFLSLMGLIHKPQVFKVAIAGAPVTVWMAYDTGYTERYMDVPENNQHGYEAGSVALHVEKLPNEPNRLLILHGFLDENVHFFHTNFLVSQLIRAGKPYQLQIYPNERHSIRCPESGEHYEVTLLHFLQEYL
For B1, the figures for the binding entry in assay [1] and in assay [2] were “binds” and “no binding”, respectively.
